Values quoted from earlier work as cited in US9114169B2, “Sweetening and healthy compositions and methods associated therewith” (priority 2013, dated 2015).
At least one read-out could not be matched to a standard name with certainty.

Settings: fold better than resveratrol

**Q.** For `COc1cc(/C=C/c2ccc(O)cc2)cc(OC)c1` [Pterostilbene, pterostilbene], which “bioavailability relative to resveratrol” value is on record?
**A.** three to four
